Measured values from publication doi:10.1101/2023.10.11.561954.
Results are given in words; binding and its absence hold for the method and conditions named. In cells and extracts the contact can be indirect. Some binding calls cover weakened binding; strength is not graded here.

The chains behind the UniProt entries cited, without tags or fusion partners.
UniProt Q04695: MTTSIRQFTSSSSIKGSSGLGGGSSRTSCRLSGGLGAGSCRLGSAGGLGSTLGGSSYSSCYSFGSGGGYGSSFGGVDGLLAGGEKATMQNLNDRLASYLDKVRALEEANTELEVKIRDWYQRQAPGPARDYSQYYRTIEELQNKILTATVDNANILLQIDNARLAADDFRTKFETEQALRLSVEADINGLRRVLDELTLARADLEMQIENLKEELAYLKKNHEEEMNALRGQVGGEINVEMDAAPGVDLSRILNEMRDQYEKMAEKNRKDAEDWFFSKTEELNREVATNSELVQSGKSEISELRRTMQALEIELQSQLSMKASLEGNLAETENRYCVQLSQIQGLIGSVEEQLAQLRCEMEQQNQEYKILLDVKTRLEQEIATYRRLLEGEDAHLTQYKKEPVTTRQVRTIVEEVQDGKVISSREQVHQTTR

Biological target: Keratin 17 (human (endogenous in A431)) (UniProt Q04695)
Assay: proximity ligation

binding: binds
Substance: protein kinase C alpha (from UniProt P17252 1-672) (enzyme)
